# Reference: paper PMC7819943, “Rice protein-binding microarrays: a tool to detect cis-acting elements near promoter regions in rice”
# By UniProt entry, the sequences of proteins in these tests, tags left out.
# UniProt Q0JBA9, entry or part of it: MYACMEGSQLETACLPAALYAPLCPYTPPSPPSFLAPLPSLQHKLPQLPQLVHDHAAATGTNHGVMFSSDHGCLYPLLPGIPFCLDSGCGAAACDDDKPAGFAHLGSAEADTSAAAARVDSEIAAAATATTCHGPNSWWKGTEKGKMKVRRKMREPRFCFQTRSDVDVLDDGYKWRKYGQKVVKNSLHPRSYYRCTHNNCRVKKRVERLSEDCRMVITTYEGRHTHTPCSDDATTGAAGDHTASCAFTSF
# The list shows a part of the results.
# Biological target: OsWRKY34 (Oryza sativa, UniProt Q0JBA9 1-250)
# Assay: protein-binding microarray (RPBM); PBS, 2% BSA, 51.3 ng/ul salmon testes DNA, 50 uM zinc acetate, 200 nM TF, 25 C, 1 h; high values mean tight binding
# Conditions: protein: recombinant; tags: N-terminal polyhistidine and DsRed monomer fusion (pET32a); label: CyDye5-dUTP incorporated in the synthesized complementary strand; 3' TTTTT single-stranded linker to array surface; dsDNA, one strand shown
# In short: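 Transcription factors were each fused at the N-terminus to a polyhistidine tag plus DsRed and expressed in E. coli BL21-CodonPlus before Ni–NTA purification. Binding to a double-stranded custom Agilent array was carried out with 200 nM protein at 25 °C for 1 h in PBS, 2% BSA, salmon testes DNA and 50 µM zinc acetate. The binding signal is per-feature fluorescence intensity, in arbitrary units, on an Axon 4000B scanner.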
row,Sequence,binding signal
1,TCTGTTTATCCTTATCTATTTATCCTTCCCCTGGTTATCCCGGAGTCACCTAGTGCAG,10100 fluorescence intensity (a.u.)
2,GTTCAATTTTTCGTTTTCAGTATTTGTATTGGGGTGCTGACGGAGTCACCTAGTGCAG,10800 fluorescence intensity (a.u.)
3,CGATTCGACCGTTGCCGCCTCGCCCGCTCCGCGCACGCGCCGGAGTCACCTAGTGCAG,8930 fluorescence intensity (a.u.)
4,ATGGCCGCCGCCCGTGGTTGCCTCGTCTCTCCGCCTACATCGGAGTCACCTAGTGCAG,9510 fluorescence intensity (a.u.)
5,TCCTATAAGTCAACCTTATCGCTCTCTCGTCTCTTATCTTCGGAGTCACCTAGTGCAG,8880 fluorescence intensity (a.u.)
6,ACTTTTTTTGCTGTGTGTGTGTGTGCATTTCGGTGCTCCACGGAGTCACCTAGTGCAG,8110 fluorescence intensity (a.u.)
7,CGAACAGCGTCTCACGCGGCAGCGATGGCAGTGGGGCTCGCGGAGTCACCTAGTGCAG,9860 fluorescence intensity (a.u.)
8,ACTGCGGATGCATCCATTGAACGAACCCATTCTGCATGTTCGGAGTCACCTAGTGCAG,8430 fluorescence intensity (a.u.)
9,GGGCCTCGGCCAACCCCACCTGGGCCGGATTGTTATCATACGGAGTCACCTAGTGCAG,9120 fluorescence intensity (a.u.)
10,GGGTGGTGTGTGTGAGAGTGAGTAACGAAGGCTTGAGGTTCGGAGTCACCTAGTGCAG,9880 fluorescence intensity (a.u.)
11,TTCTAAATTTGAAACGGTTTTATGACTTCTTTTCAGCGTTCGGAGTCACCTAGTGCAG,8520 fluorescence intensity (a.u.)
12,GTTTGTCTTCACGTCCTTTTCTTTTGCTTCAAATACGTTTCGGAGTCACCTAGTGCAG,12800 fluorescence intensity (a.u.)
13,TTCGGGGAGGGTTTTCGGGGACAGCAGCTGCGGGCTTAAACGGAGTCACCTAGTGCAG,18700 fluorescence intensity (a.u.)
14,CCCCGACTCTCTTCTTACGCACACCAATAGCATCGAGTACCGGAGTCACCTAGTGCAG,11000 fluorescence intensity (a.u.)
15,TCTTCGCAACTCCAAACTTCCCGAGCATCTTATCTTTGCACGGAGTCACCTAGTGCAG,8990 fluorescence intensity (a.u.)
16,TCATCAGTTTCTTCACATTTGCTATTCTCCGTTTATTTCCCGGAGTCACCTAGTGCAG,12600 fluorescence intensity (a.u.)
17,TGGCTTGTTTCACCTCTCCTATTGCATGCACCGCATCTCTCGGAGTCACCTAGTGCAG,9940 fluorescence intensity (a.u.)
18,TCCCGTCTGCCGCCGGCGCCGATCTCCATCCTGCGAGCAGCGGAGTCACCTAGTGCAG,8350 fluorescence intensity (a.u.)
19,TGACAGCGACCCACTCGCCCAACACTCCGCCGCTCCATTTCGGAGTCACCTAGTGCAG,8030 fluorescence intensity (a.u.)
20,CTCGCATAATCTTGTATCCCTCATCTCAGATTATCATCACCGGAGTCACCTAGTGCAG,9130 fluorescence intensity (a.u.)
21,CTATCGGAGAATTGGGTATATCTTTTCTTTTACGCTTATACGGAGTCACCTAGTGCAG,8150 fluorescence intensity (a.u.)

row,Sequence,binding signal
1,TTTTTATATGATATGTGCATCGAATCGTTTCACCTTTCTTCGGAGTCACCTAGTGCAG,8460 fluorescence intensity (a.u.)
2,GTGGGGTCGTGCATGCAGTTATCACATCCATCCATTGATCCGGAGTCACCTAGTGCAG,15000 fluorescence intensity (a.u.)
3,ACTTTTTTTTTTGGGATGCTTCTCTTCTTCCCTGGGTATCCGGAGTCACCTAGTGCAG,9710 fluorescence intensity (a.u.)
4,GTGTGAGATCCATTTGTCACTTACACACCCTCTTTCTCTTCGGAGTCACCTAGTGCAG,8620 fluorescence intensity (a.u.)
5,CGATCCACCTCGTCCATAGCAGCCTCGCATCCGAACCCGACGGAGTCACCTAGTGCAG,11300 fluorescence intensity (a.u.)
6,CAACACTCACCTCACCATCATCTCTTCTCCTCGTGCTCGTCGGAGTCACCTAGTGCAG,8860 fluorescence intensity (a.u.)
7,TTTAACATGATGTGACGGCGGTGTGTTTTTCTGCCATTTTCGGAGTCACCTAGTGCAG,10700 fluorescence intensity (a.u.)
8,CCTAACCTCTGATCACATAACCAACCATGCCGGCCACTTCCGGAGTCACCTAGTGCAG,10600 fluorescence intensity (a.u.)
9,ATGATATTTGTGGTTGGGTTTACTCTAGCGGTTTTATTTACGGAGTCACCTAGTGCAG,9100 fluorescence intensity (a.u.)
10,GTATCCAACGTTTGACCGTCCGTTTTATTTGAAAAATTTACGGAGTCACCTAGTGCAG,11100 fluorescence intensity (a.u.)
11,TATATGCGAGTGTTTTGCAGTTTTACTGTATTTATATATACGGAGTCACCTAGTGCAG,8180 fluorescence intensity (a.u.)
12,AGCCGCTTGGCCACCCCTCGCCACCTGGTCATCGCTGCCGCGGAGTCACCTAGTGCAG,8760 fluorescence intensity (a.u.)
13,TTGCATTTGACTCTTACCTCTAACTAACAATAGTTCTAACCGGAGTCACCTAGTGCAG,11200 fluorescence intensity (a.u.)
14,ATTGTGTAGTGGTATTGGTTATAATTTTCACCTTCGTCTCCGGAGTCACCTAGTGCAG,8170 fluorescence intensity (a.u.)
15,ATTACCAACCTTGCATCGTGCCGTGAATCATATAGGTTTCCGGAGTCACCTAGTGCAG,8680 fluorescence intensity (a.u.)
16,GTGGGTGTTTCTTTGGGTTCTTCTAGCTCTGACATTACAACGGAGTCACCTAGTGCAG,11200 fluorescence intensity (a.u.)
17,CAAACTGTCCAATTAGGCCCATTTACAAATTCACAAATATCGGAGTCACCTAGTGCAG,8260 fluorescence intensity (a.u.)
18,AAAATGTTTGACACCGTTGACTTTTTAGCATATGTTTGACCGGAGTCACCTAGTGCAG,30800 fluorescence intensity (a.u.)
19,TCCACCCACGTCGTCGATCTCGTCCACTCCAATTACATCCCGGAGTCACCTAGTGCAG,8840 fluorescence intensity (a.u.)
20,AAACCATTTGTTGACTCTATAACCACGATCTCTCTTCTGCCGGAGTCACCTAGTGCAG,9190 fluorescence intensity (a.u.)
21,AAGGTGGTGGGGCAGGTGGAGCGGGTGGTCGGGGCGACGCCGGAGTCACCTAGTGCAG,11300 fluorescence intensity (a.u.)

row,Sequence,binding signal
1,TCTTAATCCGTCACTCTGTTTTCCCAACCATCACCTTATACGGAGTCACCTAGTGCAG,8170 fluorescence intensity (a.u.)
2,CGTCTCATTCTTTTTTCGACCCTGTTTTTTCTATCCAGAACGGAGTCACCTAGTGCAG,9990 fluorescence intensity (a.u.)
3,ATTTGTGATATGCCACCTGACCCACATGTCATTGACTCATCGGAGTCACCTAGTGCAG,10500 fluorescence intensity (a.u.)
4,CCTTGACTCAACCACCCTACCATCATGCCAGTCATCCACTCGGAGTCACCTAGTGCAG,8530 fluorescence intensity (a.u.)
5,TATGTTGTATGCTTTGTATGATTTTGTTTATGTTTCATTGCGGAGTCACCTAGTGCAG,9940 fluorescence intensity (a.u.)
6,GTAAAATAGTAATTCAGGAGTGGTGGGTGTTCCTGAAAGACGGAGTCACCTAGTGCAG,10200 fluorescence intensity (a.u.)
7,GCTGTGCCTTGGGTATTGCCTTTTCATATGTCATTTCGAGCGGAGTCACCTAGTGCAG,8050 fluorescence intensity (a.u.)
8,GATTGGGGCGTTCTTGGGAGCTCGGGAATTCGGGTGGTTTCGGAGTCACCTAGTGCAG,11900 fluorescence intensity (a.u.)
9,AGTTTTCTAAGGGCTTGTTGTTACCGGTGTAGCGTTGCGACGGAGTCACCTAGTGCAG,8200 fluorescence intensity (a.u.)
10,TCTCCAACCCCAAAGGTTGTGTGTGTTGTTGTGTACAGGTCGGAGTCACCTAGTGCAG,9700 fluorescence intensity (a.u.)
11,GACACCGTTAACTTTTTAGCATATGTTTGACCGTTCGTCTCGGAGTCACCTAGTGCAG,10600 fluorescence intensity (a.u.)
12,GCAGTAGTCTAAACCCAGCTCTATCTCTTTATTACATTTTCGGAGTCACCTAGTGCAG,8330 fluorescence intensity (a.u.)
13,CCACCACCACCACGCCACGGCAGCCGCACCGCACCGCACCCGGAGTCACCTAGTGCAG,8390 fluorescence intensity (a.u.)
14,AGAAGCTGGGCAGTCGGTGGGCTAGGGGTAGGGAAGGAAACGGAGTCACCTAGTGCAG,10500 fluorescence intensity (a.u.)
15,TTGGTTGCTTGATCATCTTTTATACACTTTGTCCCATAATCGGAGTCACCTAGTGCAG,10600 fluorescence intensity (a.u.)
16,AAGGCGGCGGTGGGAGGGGAGAGGGAGATGGGGAGGTTGCCGGAGTCACCTAGTGCAG,10900 fluorescence intensity (a.u.)
17,TGTGCTCGCCACATCCGATCCATCGATTCGTGGAATTCTCCGGAGTCACCTAGTGCAG,9530 fluorescence intensity (a.u.)
18,ACTGTATATCGATGGCCCACTCGGCCCGACCCGTCCCGGCCGGAGTCACCTAGTGCAG,10600 fluorescence intensity (a.u.)
19,TGCTGTTAAAATGATCCATCCAATTGTCCTGTTCATTTTGCGGAGTCACCTAGTGCAG,8170 fluorescence intensity (a.u.)
20,GTGGGTGGGATCCAGGAAGATTTTAAGCTGACTGCTGCGGCGGAGTCACCTAGTGCAG,8510 fluorescence intensity (a.u.)
21,AACATCTACGAACTTGATCTTCCCATCAGAGACACCGACTCGGAGTCACCTAGTGCAG,8100 fluorescence intensity (a.u.)

row,Sequence,binding signal
1,ACACCTACTAGTACTTTTGCAATACCAAAATTTTTGCCACCGGAGTCACCTAGTGCAG,8600 fluorescence intensity (a.u.)
2,GCACTTGCCTCTTGCGTAGAGGTTGCTCTTGCTGGTTTTTCGGAGTCACCTAGTGCAG,8280 fluorescence intensity (a.u.)
3,CCACCTACCCTACATGTATATACTATGCTACCTAGATTCACGGAGTCACCTAGTGCAG,8700 fluorescence intensity (a.u.)
4,ACGTGGCCAGTGGCCATTCACGCATGCCCGATCGTTTTTCCGGAGTCACCTAGTGCAG,10300 fluorescence intensity (a.u.)
5,ATACTACTCCTGTTTTTTTAACAACACTTTAATCTTTCTTCGGAGTCACCTAGTGCAG,9170 fluorescence intensity (a.u.)
6,CTTTATTTGCATATCATTTCCATTTTTTACAAACTCTGTACGGAGTCACCTAGTGCAG,8490 fluorescence intensity (a.u.)
7,GTCTCGACGTGCGTAAACTCATCTATGGTCTCTCGATTCACGGAGTCACCTAGTGCAG,10000 fluorescence intensity (a.u.)
8,GTACCGACAAATTTGATTTCTGCAACTTCCGCATCTTTTCCGGAGTCACCTAGTGCAG,10300 fluorescence intensity (a.u.)
9,CGTTGGGAGTTGGGAGGGATGGGTGGTGCATCAAGATTGACGGAGTCACCTAGTGCAG,23500 fluorescence intensity (a.u.)
10,GCCCAGGTGTTCGTCCGTGTCCTCTTCTCCACTCCACACACGGAGTCACCTAGTGCAG,12300 fluorescence intensity (a.u.)
11,CCTCCTCAACCGGATGCCGTTCTCTCTCCACCTCTCGTCGCGGAGTCACCTAGTGCAG,9680 fluorescence intensity (a.u.)
12,TGTGTAGTGTCTGCATGTGTTGTTTGTGAATATTTTCTGCCGGAGTCACCTAGTGCAG,8480 fluorescence intensity (a.u.)
13,TTAGTACCACTGCCACCCTGTCATCTCTGATAGGACTATACGGAGTCACCTAGTGCAG,9610 fluorescence intensity (a.u.)
14,TGAATGGGTGATGCTGGGGAGCTGGGGATATTGGATATCTCGGAGTCACCTAGTGCAG,15300 fluorescence intensity (a.u.)
15,CCGTTACATGACGTGGGCCCCACCCAGCCGCGCCAGCCCACGGAGTCACCTAGTGCAG,8450 fluorescence intensity (a.u.)
16,AAACGACGCCGGCCGACTGTCTCCAGCTGATCGACCACTTCGGAGTCACCTAGTGCAG,8170 fluorescence intensity (a.u.)
17,CTTTTTTTTTCCCTCTTCTCTCATCTCGTTTTGTCACGTGCGGAGTCACCTAGTGCAG,8610 fluorescence intensity (a.u.)
18,TTCCTACGTGCTGCCGCGCGCCACATATTAATCAGCCGCACGGAGTCACCTAGTGCAG,8120 fluorescence intensity (a.u.)
19,GTCGCGGTTGCCCCTCATCGTTGCTCACGGCTGCTTCGCACGGAGTCACCTAGTGCAG,8440 fluorescence intensity (a.u.)
20,TATTTTTATTCTTATTCCCATTGCGCTTCTTCATTTTCTTCGGAGTCACCTAGTGCAG,11600 fluorescence intensity (a.u.)
21,CTCTATCCATGGAATCTCATCCATCATCCATACATAACGACGGAGTCACCTAGTGCAG,8210 fluorescence intensity (a.u.)

# Taken from above.
# For binding signal, ACACCTACTAGTACTTTTGCAATACCAAAATTTTTGCCACCGGAGTCACCTAGTGCAG shows 8600 fluorescence intensity (a.u.)
# For binding signal, TGAATGGGTGATGCTGGGGAGCTGGGGATATTGGATATCTCGGAGTCACCTAGTGCAG shows 15300 fluorescence intensity (a.u.)
# For binding signal, TTCCTACGTGCTGCCGCGCGCCACATATTAATCAGCCGCACGGAGTCACCTAGTGCAG shows 8120 fluorescence intensity (a.u.)
# For binding signal, GTCGCGGTTGCCCCTCATCGTTGCTCACGGCTGCTTCGCACGGAGTCACCTAGTGCAG shows 8440 fluorescence intensity (a.u.)
